The test system of this test is L1210 leukemia ip in BDF1 mice, survival T/C. The experiment in a line: NCI In Vivo Anticancer Drug Screen. Data for tumor model L1210 Leukemia (intraperitoneal) in B6D2F1 (BDF1) mice. The following applies: T/C endpoint: mean survival time, higher T/C = longer survival.
Where [1] appears, read: dose: 100.0 mg/kg/injection, schedule: Q04DX002 (ip), vehicle: saline.
Setting [2] is: dose: 200.0 mg/kg/injection, schedule: Q04DX002 (ip), vehicle: saline.
Where [3] appears, read: dose: 400.0 mg/kg/injection, schedule: Q04DX002 (ip), vehicle: saline.
The mark [4] stands for this setting: dose: 3.6 mg/kg/injection, schedule: Q01DX Z (ip), vehicle: saline.
[5] abbreviates: dose: 4.8 mg/kg/injection, schedule: Q01DX Z (ip), vehicle: saline.
Where [6] appears, read: dose: 12.5 mg/kg/injection, schedule: Q01DX009 (ip), vehicle: saline.
[7] abbreviates: dose: 25.0 mg/kg/injection, schedule: Q01DX001 (ip), vehicle: saline.
The mark [8] stands for this setting: dose: 25.0 mg/kg/injection, schedule: Q01DX009 (ip), vehicle: saline.
[9] abbreviates: dose: 50.0 mg/kg/injection, schedule: Q01DX001 (ip), vehicle: saline.
The mark [10] stands for this setting: dose: 50.0 mg/kg/injection, schedule: Q01DX009 (ip), vehicle: saline.

The list is a part of this screen's results and no random one: it gathers some chemical classes. Other doses and runs of a compound may be missing. T/C is the treated group as % of the vehicle group. Some doses have a count of surviving animals in place of a T/C: the source files T/C as zero there, which appears to mark a toxic dose or a test without result, not a measured value. Some doses without a T/C left all or most animals alive at the check, yet need not have been tolerated: the source hardly ever lists a survival T/C far under the control, and the zero likely stands for such cases as well. Counts of survivors are from the toxicity check (mostly the fifth day) where no day follows; animals may have died later. Schedules are NCI's codes, taken here to give the interval after Q, in days (D) or hours (H), and the number of doses after X. Some schedules carry Z or #; the key to these is not given. Some complexes appear as separate parts, the way the source draws them; their charges need not add up. Where survival is the endpoint, the PubChem record calls one and a half times the control and up active, and a quarter to a half above the control has no call in these data; cut-offs in other NCI protocols can differ. Some doses were run more than once; their values stand side by side, smallest first. Some T/C values are followed by the survivors on the day toxicity was checked, most often the fifth; where neither a count nor a note follows, no animal had died by that day.

For the molecule `O=C(OCCN1CCCCCCCC1)C(O)(c1ccccc1)c1ccccc1`, the T/C under setting [1] was 101 % of control, the T/C under setting [2] is 89 % of control and the T/C under setting [3] was 97 % of control.

Consider `O=C(O)COc1cccc(CN(CCCl)CCCl)c1`, for which the T/C is, setting by setting: (dose: 0.8 mg/kg/injection, schedule: Q01DX010 (ip), vehicle: propolene glycol) 122 % of control; (dose: 0.8 mg/kg/injection, schedule: Q01DX Z (ip), vehicle: saline) 109 and 116 % of control; (dose: 0.9 mg/kg/injection, schedule: Q01DX Z (ip), vehicle: saline) 122 % of control; (dose: 1.02 mg/kg/injection, schedule: Q01DX009 (ip), vehicle: saline) 105 and 120 % of control; (dose: 1.2 mg/kg/injection, schedule: Q01DX011 (ip), vehicle: propolene glycol) 128 % of control; (dose: 1.2 mg/kg/injection, schedule: Q01DX Z (ip), vehicle: saline) 107 and 113 % of control. In addition, the T/C (dose: 1.56 mg/kg/injection, schedule: Q01DX009 (ip), vehicle: saline) is reported as 100, 120, 133 % of control; the T/C (dose: 1.8 mg/kg/injection, schedule: Q01DX010 (ip), vehicle: propolene glycol) was 127 % of control; the T/C (dose: 1.8 mg/kg/injection, schedule: Q01DX Z (ip), vehicle: saline) is 114, 125, 128 % of control; the T/C (dose: 2.34 mg/kg/injection, schedule: Q01DX009 (ip), vehicle: saline) was 103 and 125 % of control; the T/C (dose: 2.7 mg/kg/injection, schedule: Q01DX011 (ip), vehicle: propolene glycol) was 110 % of control; the T/C (dose: 2.7 mg/kg/injection, schedule: Q01DX Z (ip), vehicle: saline) was 107 [5 of 6 alive] and 125 % of control. The T/C by setting is: (dose: 2.8 mg/kg/injection, schedule: Q01DX001 (ip), vehicle: saline) 104 % of control; (dose: 3.12 mg/kg/injection, schedule: Q01DX009 (ip), vehicle: saline) 119 % of control; under setting [4], 106 % of control; (dose: 4.1 mg/kg/injection, schedule: Q01DX001 (ip), vehicle: saline) 117 % of control; under setting [5], 95 % of control; (dose: 6.2 mg/kg/injection, schedule: Q01DX001 (ip), vehicle: saline) 125 and 128 % of control. The T/C (dose: 9.3 mg/kg/injection, schedule: Q01DX001 (ip), vehicle: saline) was 109 % of control; the T/C (dose: 12.5 mg/kg/injection, schedule: Q01DX001 (ip), vehicle: saline, evaluated on day 30) is 120 % of control [5 of 6 alive]; the T/C (dose: 12.5 mg/kg/injection, schedule: Q01DX001 (ip), vehicle: saline, run until all animals had died) is 114 % of control; the T/C under setting [7] is 120 % of control; the T/C under setting [9] is 122 % of control [5 of 6 alive]. Moreover, the survivor count by setting is: under setting [4], 6 of 6; under setting [5], 6 of 6; (dose: 6.25 mg/kg/injection, schedule: Q01DX009 (ip), vehicle: saline) 4 of 6; (dose: 7.2 mg/kg/injection, schedule: Q01DX Z (ip), vehicle: saline) 3 of 6; under setting [6], 0 of 6; under setting [7], 3 of 4. In addition, the survivor count reads like this: under setting [8], 0 of 6; under setting [9], 0 of 4; under setting [10], 0 of 6.

As for `CSP1(SC)=NP(Cl)(Cl)=NP(Cl)(Cl)=N1`, the T/C by setting is: (dose: 25.0 mg/kg/injection, schedule: Q01DX009 (ip), vehicle: saline with Tween-80) 97 % of control; (dose: 25.0 mg/kg/injection, schedule: Q04DX002 (ip), vehicle: saline with Tween-80) 100 % of control; (dose: 50.0 mg/kg/injection, schedule: Q01DX009 (ip), vehicle: saline with Tween-80) 106 % of control; (dose: 50.0 mg/kg/injection, schedule: Q04DX002 (ip), vehicle: saline with Tween-80) 87 % of control; (dose: 100.0 mg/kg/injection, schedule: Q01DX009 (ip), vehicle: saline with Tween-80) 106 % of control; (dose: 100.0 mg/kg/injection, schedule: Q04DX002 (ip), vehicle: saline with Tween-80) 94 and 110 % of control. Further, the survivor count reads like this: (dose: 200.0 mg/kg/injection, schedule: Q04DX002 (ip), vehicle: saline with Tween-80) 3 of 3; (dose: 400.0 mg/kg/injection, schedule: Q04DX002 (ip), vehicle: saline with Tween-80) 0 of 3.

As for `O=C(NP(=O)(N1CCOCC1)N1CCOCC1)N1CCOCC1`, the T/C by setting is: under setting [9], 106 % of control; (dose: 100.0 mg/kg/injection, schedule: Q01DX001 (ip), vehicle: saline) 101 % of control; (dose: 200.0 mg/kg/injection, schedule: Q01DX001 (ip), vehicle: saline) 104 % of control; (dose: 400.0 mg/kg/injection, schedule: Q01DX001 (ip), vehicle: saline) 106 % of control.

Regarding `FC(Cl)C(F)(F)Sc1ccc(Cl)cc1` (stereo not given), the T/C runs as follows: (dose: 100.0 mg/kg/injection, schedule: Q01DX009 (ip), vehicle: Klucel (hydroxypropylcellulose) (HPC)) 106 % of control; (dose: 100.0 mg/kg/injection, schedule: Q04DX003 (ip), vehicle: Klucel (hydroxypropylcellulose) (HPC)) 100 % of control; (dose: 200.0 mg/kg/injection, schedule: Q01DX009 (ip), vehicle: Klucel (hydroxypropylcellulose) (HPC)) 97 % of control; (dose: 200.0 mg/kg/injection, schedule: Q04DX003 (ip), vehicle: Klucel (hydroxypropylcellulose) (HPC)) 100 % of control; (dose: 400.0 mg/kg/injection, schedule: Q04DX003 (ip), vehicle: Klucel (hydroxypropylcellulose) (HPC)) 107 % of control. Further, the survivor count (dose: 400.0 mg/kg/injection, schedule: Q01DX009 (ip), vehicle: Klucel (hydroxypropylcellulose) (HPC)) is reported as 3 of 6.

As for `O=C(CC(=O)c1ccccc1)OC1CN2CCC1CC2` (stereo not given), the T/C by setting is: under setting [1], 96 % of control; under setting [2], 98 % of control [2 of 3 alive]; under setting [3], 98 % of control [2 of 3 alive].

Regarding `CN(C)c1ccc(N=O)cc1.[C-]#N.[C-]#N.[C-]#N.[C-]#N.[C-]#N.[Fe+6]`, the T/C reads like this: under setting [6], 93 % of control; under setting [8], 93 % of control; under setting [10], 95 % of control; (dose: 100.0 mg/kg/injection, schedule: Q04DX003 (ip), vehicle: saline) 99 % of control; (dose: 200.0 mg/kg/injection, schedule: Q04DX003 (ip), vehicle: saline) 96 % of control. Besides, the survivor count reads like this: under setting [10], 5 of 6; (dose: 100.0 mg/kg/injection, schedule: Q01DX009 (ip), vehicle: saline) 2 of 6; (dose: 200.0 mg/kg/injection, schedule: Q01DX009 (ip), vehicle: saline) 0 of 6; (dose: 400.0 mg/kg/injection, schedule: Q04DX003 (ip), vehicle: saline) 1 of 6.

For the origin of these results see PubChem BioAssay AID248 (DTP/NCI, 2004).
